# Results published in the supplement of paper PMC3682954.
# Where “and” joins values, the source holds several entries; their conditions need not be identical. Equal entries are not always repeated. Structures can show the parent of a compound that is named as a salt. ± gives the standard deviation of the averaged measurements. The list shows a part of the results. Repeats are few or missing, and single values can be far off.
# System: RAW 264.7
# Assay: HMGB1-induced TNF-alpha production relative to HMGB1-stimulated control; higher = more TNF-alpha secretion (less inhibition)
# Conditions: stimulus: HMGB1 5 ug/ml, 18 h
# [1] = compound concentration: 1 ug/ml
SMILES,HMGB1-induced TNF-alpha production (compound concentration: 3 uM),HMGB1-induced TNF-alpha production [1] [%]
CN(Cc1cnc2nc(N)nc(N)c2n1)c1ccc(C(=O)N[C@@H](CCC(=O)O)C(=O)O)cc1,99.9%,
O=C(COc1ccc(Cl)cc1)N1CCN(Cc2ccc3c(c2)OCO3)CC1 [Fipexide hydrochloride],71.7%,
O=C(COc1ccc(Cl)cc1)N1CCN(Cc2ccc3c(c2)OCO3)CC1,82%,
CNC(C)CCC=C(C)C (configuration not stated) [Isometheptene mucate],102%,
CC(C)(C)CC(C)(C)c1ccc(O)c(Cc2ccc(Cl)cc2Cl)c1,60.4%,
C[C@H]1[C@H](C)CC[C@]2(C(=O)O)CC[C@]3(C)C(=CC[C@@H]4[C@@]5(C)C[C@@H](O)[C@H](O)[C@@](C)(CO)[C@@H]5CC[C@]43C)[C@H]12 [Asiatic acid],,82.7
CCOC(=O)c1ccc(N)cc1 [Benzocaine],98.9%,
CCOC(=O)c1ccc(N)cc1,85.4%,
CCN(CC)CCOC(=O)C(c1ccccc1)c1ccccc1 [Adiphenine hydrochloride],80.1%,
CCN(CC)CCOC(=O)C(c1ccccc1)c1ccccc1,99.2%,
OC(CCCN1CCCCC1)(c1ccccc1)c1ccccc1 [Diphenidol hydrochloride],73.6%,
"C=CCn1c(=O)c2c(nc(-c3ccc(S(=O)(=O)O)cc3)n2C)n(C)c1=O [1-Allyl-3,7-dimethyl-8-p-sulfophenylxanthine]",95.6%,
C[C@]12CC[C@@H]3c4ccc(OS(=O)(=O)O)cc4CC[C@H]3[C@@H]1CCC2=O [Estropipate],117%,
C[C@]12CC[C@@H]3c4ccc(OS(=O)(=O)O)cc4CC[C@H]3[C@@H]1CCC2=O,79% and 99.1%,
COc1cccc(OC)c1C(=O)N[C@@H]1C(=O)N2[C@@H]1SC(C)(C)[C@@H]2C(=O)O,103%,
Cc1cc2c(C(C)C)c(O)c(O)c(/C=N/n3c(=O)[nH][nH]c3=O)c2c(O)c1-c1c(C)cc2c(C(C)C)c(O)c(O)c(/C=N/n3c(=O)[nH][nH]c3=O)c2c1O,,63.7
Cc1ccc(S(=O)(=O)NC(=O)NN2CCCCCC2)cc1,82.4%,
Cc1ccc(S(=O)(=O)NC(=O)NN2CCCCCC2)cc1 [Tolazamide],86.5 ± 11%,
COc1cc2c(CCNC(C)=O)c[nH]c2cc1Cl [6-Chloromelatonin],81.5%,
CCCN(CCc1ccccc1)C1CCc2c(O)cccc2C1 (racemic) [(±)-PPHT hydrochloride],113%,
CCCCC1(COC(=O)CCC(=O)O)C(=O)N(c2ccccc2)N(c2ccccc2)C1=O [Suxibuzone],80.7%,

SMILES,HMGB1-induced TNF-alpha production (compound concentration: 3 uM),HMGB1-induced TNF-alpha production [1] [%]
CCCCC1(COC(=O)CCC(=O)O)C(=O)N(c2ccccc2)N(c2ccccc2)C1=O,74.6%,
COc1cc(NC(C)CCCN)c2ncccc2c1 (configuration not stated) [Primaquine diphosphate],87.2%,
COc1cc(NC(C)CCCN)c2ncccc2c1 (configuration not stated),76%,
COc1cc(NC(C)CCCN)c2ncccc2c1 (configuration not stated) [Primaquine],82.3%,
O=C(O)c1cc2cc3c4c(c2oc1=O)CCCN4CCC3 [Coumarin 343],,83.1
CCCCNc1c(C(=O)OCC)c(C)nc2c1cnn2CC [Tracazolate],85.1%,
CCCCNc1c(C(=O)OCC)c(C)nc2c1cnn2CC [Tracazolate hydrochloride],82.1%,
CO[C@H](C(=O)[C@@H](O)[C@@H](C)O)[C@@H]1Cc2cc3cc(O[C@H]4C[C@@H](O[C@@H]5C[C@@H](O)[C@H](O)[C@@H](C)O5)[C@H](O)[C@@H](C)O4)c(C)c(O)c3c(O)c2C(=O)[C@H]1O[C@H]1C[C@@H](O[C@@H]2C[C@@H](O)[C@@H](O[C@@H]3C[C@](C)(O)[C@H](O)[C@@H](C)O3)[C@@H](C)O2)[C@H](O)[C@@H](C)O1 [Plicamycin],114%,
CC[N+](CC)(CC)CC(=O)Nc1c(C)cccc1C [Lidocaine N-ethyl bromide quaternary salt],107%,
COc1cc(-c2ccc(=O)[nH]n2)ccc1OC(F)F [Zardaverine],80.5 ± 8.1%,
Nc1nc(OCc2ccccc2)c2nc[nH]c2n1 [O6-benzylguanine],65.2%,
CC1=C(/C=C/C(C)=C/C=C/C(C)=C\C(=O)O)C(C)(C)CCC1,41.4%,
CC1=C(/C=C/C(C)=C/C=C/C(C)=C\C(=O)O)C(C)(C)CCC1 [Isotretinoin],55.8%,
CC1=C(/C=C/C(C)=C/C=C/C(C)=C\C(=O)O)C(C)(C)CCC1 [13-cis-retinoic acid],120%,
CC/C(=C(/CC)c1ccc(O)cc1)c1ccc(O)cc1 [Diethylstilbestrol],91.6 ± 17%,
CC/C(=C(/CC)c1ccc(O)cc1)c1ccc(O)cc1,87.4%,
CC(C)(Sc1ccc(CCN(CCCCC2CCCCC2)C(=O)NC2CCCCC2)cc1)C(=O)O,101%,
NC1C=CC=C(C(=O)O)C1 (configuration not stated) [Gabaculine hydrochloride],84.3%,
CSc1ccc2c(c1)N(CCC1CCCCN1C)c1ccccc1S2 (configuration not stated),87.7%,
CSc1ccc2c(c1)N(CCC1CCCCN1C)c1ccccc1S2 (configuration not stated) [Thioridazine hydrochloride],91 ± 27%,
CSc1ccc2c(c1)N(CCC1CCCCN1C)c1ccccc1S2 (configuration not stated) [Thioridazine],93.6%,

# Copied from the listing for reference:
SMILES,HMGB1-induced TNF-alpha production (compound concentration: 3 uM),HMGB1-induced TNF-alpha production [1] [%]
"C=CCn1c(=O)c2c(nc(-c3ccc(S(=O)(=O)O)cc3)n2C)n(C)c1=O [1-Allyl-3,7-dimethyl-8-p-sulfophenylxanthine]",95.6%,
C[C@]12CC[C@@H]3c4ccc(OS(=O)(=O)O)cc4CC[C@H]3[C@@H]1CCC2=O [Estropipate],117%,
C[C@]12CC[C@@H]3c4ccc(OS(=O)(=O)O)cc4CC[C@H]3[C@@H]1CCC2=O,79% and 99.1%,
